From patent publication US20230212519A1, “METHOD FOR PURIFYING CARDIOMYOCYTES” (ORIZURU THERAPEUTICS, INC., priority 2020, published 2023)
At least one structure is not confirmed: it was looked up by name or label, or the drawing left a doubt.

What was measured:
[1] = tested on: embryoid body containing mixture of cardiomyocytes and non-cardiomyocytes; assay: Non-cardiomyocyte rate (CD326, CD31, CD49a surface markers) after treatment of embryoid body with compound; format: cell-based, human; settings: Experimental Example 5; embryoid body treated from day 21 for 3 days; FK-228 0.1 nM, 1 nM
[2] = tested on: embryoid body containing mixture of cardiomyocytes and non-cardiomyocytes; assay: Sarcomeric α-actinin-positive cell rate by flow cytometer after treatment of embryoid body with compound; format: cell-based, human; settings: Experimental Example 4; clinical iPS cell line; embryoid body treated from day 20 for 4 days; FK-228 1-30 nM, Entinostat 0.1-10 μM
Experimental: On day 20, the embryoid body was recovered in a centrifugal tube, stood until a sediment of the embryoid body was formed, and the supernatant was aspirated while avoiding sucking the embryoid body. The medium was changed with a fresh 13 medium (same medium for myocardial differentiation as in Experimental Example 1), and divided into a 6-well plate with a medium amount of 3 mL/well so that an equal amount of the embryoid body would be placed in each well. Thereafter, an evaluation compound (1 nM to 10 μM) described in Table 1 or DMSO (0.1%) was added. […] It was centrifuged at 500 g for 1 min. The supernatant was removed, a solution of 500 μL of IMDM added with DNase 10 μg/mL and Liberase 100 μg/mL was added per one tube, and the mixture was stood at 37° C. under general oxygen conditions for 1 hr. […] The fixed cells were stained with an anti-sarcomeric α-actinin antibody, and the expression of sarcomeric α-actinin was analyzed with a flow cytometer. […]
On day 20, the embryoid body was recovered in a centrifugal tube, stood until a sediment of the embryoid body was formed, and the supernatant was aspirated while avoiding sucking the embryoid body. […] The fixed cells were stained with an anti-sarcomeric α-actinin antibody, and the sarcomeric α-actinin-positive cell rate was measured by analyzing the expression of sarcomeric α-actinin with a flow cytometer. […]

C/C=C1\NC(=O)[C@H]2CSSCC/C=C/[C@H](CC(=O)N[C@H](C(C)C)C(=O)N2)OC(=O)[C@H](C(C)C)NC1=O [FK228, Romidepsin]
non-cardiomyocyte rate [1]: decreased
cardiomyocyte rate (sarcomeric α-actinin-positive cell rate) [2]: improved
